Data published in the supplement of paper PMC10849652.
The other results are listed elsewhere or left out.

The chains behind the UniProt entries cited, without tags or fusion partners. Where a name states a change or a piece, a line headed by the entry shows the natural chain unless it says otherwise.
UniProt O15431: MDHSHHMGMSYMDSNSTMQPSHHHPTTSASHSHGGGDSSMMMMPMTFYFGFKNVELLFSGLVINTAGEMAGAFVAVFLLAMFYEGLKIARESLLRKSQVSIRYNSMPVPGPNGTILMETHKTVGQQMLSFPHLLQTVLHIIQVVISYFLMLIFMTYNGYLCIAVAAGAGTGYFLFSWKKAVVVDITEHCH
UniProt O76082: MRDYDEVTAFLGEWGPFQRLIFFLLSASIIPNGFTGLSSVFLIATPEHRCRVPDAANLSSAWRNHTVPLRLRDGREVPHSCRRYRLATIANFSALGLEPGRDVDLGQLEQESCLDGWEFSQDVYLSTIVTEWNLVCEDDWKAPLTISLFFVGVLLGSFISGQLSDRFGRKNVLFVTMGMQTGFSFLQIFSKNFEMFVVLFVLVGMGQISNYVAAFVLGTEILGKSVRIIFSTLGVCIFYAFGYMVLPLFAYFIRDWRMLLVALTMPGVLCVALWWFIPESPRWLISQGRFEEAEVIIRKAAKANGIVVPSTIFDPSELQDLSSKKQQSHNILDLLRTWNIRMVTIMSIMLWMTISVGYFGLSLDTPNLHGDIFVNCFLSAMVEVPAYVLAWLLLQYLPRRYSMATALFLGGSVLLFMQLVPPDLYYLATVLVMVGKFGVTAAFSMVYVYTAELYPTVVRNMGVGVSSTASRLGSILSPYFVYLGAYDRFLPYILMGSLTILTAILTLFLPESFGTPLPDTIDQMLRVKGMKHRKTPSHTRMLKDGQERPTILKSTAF
UniProt Q9HBR0: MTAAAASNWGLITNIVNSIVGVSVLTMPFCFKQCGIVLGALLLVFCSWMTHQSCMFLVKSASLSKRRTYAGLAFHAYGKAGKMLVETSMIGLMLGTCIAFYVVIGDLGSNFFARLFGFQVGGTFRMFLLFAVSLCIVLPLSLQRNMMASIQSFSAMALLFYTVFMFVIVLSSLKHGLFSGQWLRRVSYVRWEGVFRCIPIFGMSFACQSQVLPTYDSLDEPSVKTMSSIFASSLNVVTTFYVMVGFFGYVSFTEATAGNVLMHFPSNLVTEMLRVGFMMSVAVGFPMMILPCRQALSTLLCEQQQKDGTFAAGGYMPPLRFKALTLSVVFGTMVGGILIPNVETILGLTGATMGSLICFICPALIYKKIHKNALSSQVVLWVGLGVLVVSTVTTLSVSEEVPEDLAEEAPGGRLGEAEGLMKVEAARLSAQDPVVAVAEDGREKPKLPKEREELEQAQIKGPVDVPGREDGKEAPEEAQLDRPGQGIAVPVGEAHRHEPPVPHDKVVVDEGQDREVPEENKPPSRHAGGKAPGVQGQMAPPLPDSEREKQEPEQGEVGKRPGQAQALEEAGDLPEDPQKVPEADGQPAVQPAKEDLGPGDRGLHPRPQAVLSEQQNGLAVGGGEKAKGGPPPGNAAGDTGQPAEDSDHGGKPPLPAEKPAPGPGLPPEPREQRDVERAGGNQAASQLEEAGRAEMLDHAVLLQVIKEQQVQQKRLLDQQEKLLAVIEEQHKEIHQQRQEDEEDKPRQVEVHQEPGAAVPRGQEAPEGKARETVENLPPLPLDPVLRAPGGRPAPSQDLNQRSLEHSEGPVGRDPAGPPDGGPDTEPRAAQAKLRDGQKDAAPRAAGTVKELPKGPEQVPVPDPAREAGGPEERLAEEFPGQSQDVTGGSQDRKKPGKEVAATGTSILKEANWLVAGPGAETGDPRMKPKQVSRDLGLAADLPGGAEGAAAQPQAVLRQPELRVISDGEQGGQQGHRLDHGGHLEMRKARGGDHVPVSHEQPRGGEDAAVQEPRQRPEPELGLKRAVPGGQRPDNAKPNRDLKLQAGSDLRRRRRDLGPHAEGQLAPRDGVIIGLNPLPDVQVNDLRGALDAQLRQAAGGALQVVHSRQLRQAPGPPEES
UniProt P12236: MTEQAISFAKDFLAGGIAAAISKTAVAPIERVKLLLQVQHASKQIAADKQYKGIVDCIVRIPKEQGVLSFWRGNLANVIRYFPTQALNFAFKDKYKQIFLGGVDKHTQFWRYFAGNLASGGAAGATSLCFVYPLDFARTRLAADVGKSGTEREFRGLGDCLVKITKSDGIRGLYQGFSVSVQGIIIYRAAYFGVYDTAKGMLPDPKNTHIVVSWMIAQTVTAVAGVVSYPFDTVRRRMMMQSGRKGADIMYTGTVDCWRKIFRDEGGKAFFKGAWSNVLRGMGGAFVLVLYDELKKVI
UniProt Q5SVS4: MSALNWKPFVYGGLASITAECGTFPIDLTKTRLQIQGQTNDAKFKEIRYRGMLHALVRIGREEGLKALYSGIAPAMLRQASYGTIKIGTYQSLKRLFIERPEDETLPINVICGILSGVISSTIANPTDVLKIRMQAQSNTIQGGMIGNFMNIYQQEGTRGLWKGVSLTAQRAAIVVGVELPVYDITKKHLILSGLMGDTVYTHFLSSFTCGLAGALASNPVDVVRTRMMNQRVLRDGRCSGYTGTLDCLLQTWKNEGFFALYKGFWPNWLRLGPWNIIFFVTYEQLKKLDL
UniProt Q9BXS9: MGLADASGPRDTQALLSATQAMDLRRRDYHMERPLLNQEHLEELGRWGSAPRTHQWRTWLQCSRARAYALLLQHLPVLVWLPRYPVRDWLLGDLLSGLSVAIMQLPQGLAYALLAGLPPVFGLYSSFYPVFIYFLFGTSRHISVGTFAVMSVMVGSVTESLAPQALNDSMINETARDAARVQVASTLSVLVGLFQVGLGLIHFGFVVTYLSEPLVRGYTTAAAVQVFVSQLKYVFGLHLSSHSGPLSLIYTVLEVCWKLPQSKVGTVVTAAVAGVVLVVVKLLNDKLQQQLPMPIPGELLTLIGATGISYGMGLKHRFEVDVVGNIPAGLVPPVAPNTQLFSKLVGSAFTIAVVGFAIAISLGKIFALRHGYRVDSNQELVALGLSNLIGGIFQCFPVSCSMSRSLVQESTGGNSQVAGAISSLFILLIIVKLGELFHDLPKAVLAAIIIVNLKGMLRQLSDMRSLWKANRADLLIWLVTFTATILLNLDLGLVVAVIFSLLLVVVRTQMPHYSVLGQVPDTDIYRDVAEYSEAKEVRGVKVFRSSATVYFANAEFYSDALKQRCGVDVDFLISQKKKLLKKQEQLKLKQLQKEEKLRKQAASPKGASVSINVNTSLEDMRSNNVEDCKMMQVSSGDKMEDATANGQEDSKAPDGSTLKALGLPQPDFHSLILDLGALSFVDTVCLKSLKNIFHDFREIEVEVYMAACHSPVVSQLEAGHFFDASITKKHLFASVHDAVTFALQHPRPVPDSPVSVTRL
UniProt Q96H78: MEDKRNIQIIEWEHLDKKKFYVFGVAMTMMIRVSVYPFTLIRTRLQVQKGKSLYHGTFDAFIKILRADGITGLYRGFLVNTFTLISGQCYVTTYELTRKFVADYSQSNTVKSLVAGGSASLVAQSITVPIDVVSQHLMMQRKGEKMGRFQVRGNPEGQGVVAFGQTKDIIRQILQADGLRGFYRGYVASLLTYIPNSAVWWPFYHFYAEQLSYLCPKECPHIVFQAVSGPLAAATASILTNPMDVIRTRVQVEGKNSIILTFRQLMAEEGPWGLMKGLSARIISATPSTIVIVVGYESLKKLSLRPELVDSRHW
UniProt Q9HAB3: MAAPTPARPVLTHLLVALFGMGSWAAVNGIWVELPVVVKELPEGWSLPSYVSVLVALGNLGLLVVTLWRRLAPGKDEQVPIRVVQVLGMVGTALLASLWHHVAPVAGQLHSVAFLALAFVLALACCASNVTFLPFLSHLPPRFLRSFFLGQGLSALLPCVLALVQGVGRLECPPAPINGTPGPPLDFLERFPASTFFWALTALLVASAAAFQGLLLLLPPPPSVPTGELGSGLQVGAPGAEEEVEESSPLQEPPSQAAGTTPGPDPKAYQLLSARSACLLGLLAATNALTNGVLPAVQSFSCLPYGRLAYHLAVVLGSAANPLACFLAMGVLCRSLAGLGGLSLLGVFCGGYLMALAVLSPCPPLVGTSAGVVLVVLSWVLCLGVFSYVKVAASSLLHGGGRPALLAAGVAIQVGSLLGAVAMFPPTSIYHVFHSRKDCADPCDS
UniProt Q92581: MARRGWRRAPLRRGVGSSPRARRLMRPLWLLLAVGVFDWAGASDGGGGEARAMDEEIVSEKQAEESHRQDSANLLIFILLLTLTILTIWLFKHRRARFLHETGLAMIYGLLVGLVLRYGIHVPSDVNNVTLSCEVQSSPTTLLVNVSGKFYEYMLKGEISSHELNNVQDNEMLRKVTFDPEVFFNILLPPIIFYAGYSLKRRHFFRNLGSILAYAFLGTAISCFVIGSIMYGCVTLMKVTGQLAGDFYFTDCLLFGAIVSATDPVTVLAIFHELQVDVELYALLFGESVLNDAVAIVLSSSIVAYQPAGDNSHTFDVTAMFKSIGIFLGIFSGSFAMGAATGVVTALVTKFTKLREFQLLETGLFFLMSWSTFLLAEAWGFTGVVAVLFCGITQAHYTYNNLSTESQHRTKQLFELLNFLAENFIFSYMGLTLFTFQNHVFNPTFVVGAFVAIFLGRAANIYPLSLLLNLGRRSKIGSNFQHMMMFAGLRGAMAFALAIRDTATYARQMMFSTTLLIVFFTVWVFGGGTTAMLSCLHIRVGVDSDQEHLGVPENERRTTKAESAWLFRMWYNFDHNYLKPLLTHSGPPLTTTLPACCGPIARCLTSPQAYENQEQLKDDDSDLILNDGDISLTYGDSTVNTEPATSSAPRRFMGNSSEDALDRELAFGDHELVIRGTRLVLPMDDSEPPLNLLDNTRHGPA
UniProt Q6YBV0: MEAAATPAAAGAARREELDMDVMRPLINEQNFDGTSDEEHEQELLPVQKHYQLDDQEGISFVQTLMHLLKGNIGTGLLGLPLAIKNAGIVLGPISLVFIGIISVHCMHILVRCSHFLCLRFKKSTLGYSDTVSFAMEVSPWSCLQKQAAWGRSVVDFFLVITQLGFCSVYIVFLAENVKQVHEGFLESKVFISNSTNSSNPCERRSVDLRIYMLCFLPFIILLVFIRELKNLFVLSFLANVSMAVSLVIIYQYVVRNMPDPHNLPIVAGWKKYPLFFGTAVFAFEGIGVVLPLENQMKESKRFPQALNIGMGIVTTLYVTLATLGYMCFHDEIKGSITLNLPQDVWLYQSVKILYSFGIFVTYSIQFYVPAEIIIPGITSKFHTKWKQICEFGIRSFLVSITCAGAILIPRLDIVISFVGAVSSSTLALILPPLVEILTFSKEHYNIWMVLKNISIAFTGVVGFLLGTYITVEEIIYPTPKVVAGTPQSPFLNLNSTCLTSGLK
UniProt Q8N1S5: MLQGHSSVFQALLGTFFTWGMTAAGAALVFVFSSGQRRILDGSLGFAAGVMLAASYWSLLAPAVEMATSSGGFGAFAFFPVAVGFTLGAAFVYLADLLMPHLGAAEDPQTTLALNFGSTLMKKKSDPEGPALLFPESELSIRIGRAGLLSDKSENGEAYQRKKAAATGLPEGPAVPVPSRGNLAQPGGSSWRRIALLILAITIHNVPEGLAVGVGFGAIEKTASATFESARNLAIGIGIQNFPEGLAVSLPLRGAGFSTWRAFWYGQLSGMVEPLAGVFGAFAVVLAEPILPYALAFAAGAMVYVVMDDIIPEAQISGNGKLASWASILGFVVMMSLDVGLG
UniProt F5GZS6: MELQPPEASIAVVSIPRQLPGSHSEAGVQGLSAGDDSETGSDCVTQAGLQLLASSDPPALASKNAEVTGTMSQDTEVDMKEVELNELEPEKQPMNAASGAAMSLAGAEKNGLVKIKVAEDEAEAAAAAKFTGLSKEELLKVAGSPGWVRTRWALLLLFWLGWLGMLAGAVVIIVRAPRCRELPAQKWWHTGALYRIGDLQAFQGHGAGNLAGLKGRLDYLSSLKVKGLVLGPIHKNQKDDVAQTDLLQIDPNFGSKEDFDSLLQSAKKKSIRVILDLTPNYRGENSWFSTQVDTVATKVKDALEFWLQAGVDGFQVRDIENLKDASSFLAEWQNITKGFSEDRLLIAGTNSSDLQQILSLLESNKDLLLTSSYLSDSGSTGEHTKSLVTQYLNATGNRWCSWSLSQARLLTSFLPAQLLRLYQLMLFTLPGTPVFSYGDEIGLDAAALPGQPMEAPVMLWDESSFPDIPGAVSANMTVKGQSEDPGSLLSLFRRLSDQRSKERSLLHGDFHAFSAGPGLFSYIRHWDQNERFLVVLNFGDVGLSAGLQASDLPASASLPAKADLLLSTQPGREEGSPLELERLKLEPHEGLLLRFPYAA
UniProt Q14542: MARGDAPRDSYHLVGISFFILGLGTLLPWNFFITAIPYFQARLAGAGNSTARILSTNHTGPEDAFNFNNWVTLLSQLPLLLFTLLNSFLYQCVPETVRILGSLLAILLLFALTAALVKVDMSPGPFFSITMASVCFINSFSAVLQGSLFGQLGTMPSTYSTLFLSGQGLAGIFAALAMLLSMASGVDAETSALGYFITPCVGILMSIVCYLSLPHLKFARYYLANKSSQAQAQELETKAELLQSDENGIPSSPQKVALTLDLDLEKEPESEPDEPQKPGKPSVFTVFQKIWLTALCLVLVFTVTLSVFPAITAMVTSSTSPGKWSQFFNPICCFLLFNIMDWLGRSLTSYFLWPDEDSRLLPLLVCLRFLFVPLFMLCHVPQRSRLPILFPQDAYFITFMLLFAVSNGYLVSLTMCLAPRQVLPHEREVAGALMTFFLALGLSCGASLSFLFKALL

What was measured:
Assay in all cases: log2 fold change, soluble protein after heating vs DMSO (PISA); higher = thermal stabilisation; K562 lysate, 10 uM; active = over 0.2 and 3.5 SD of the protein, either way, in both replicates (recomputed)
alvocidib = compound: CN1CC[C@H](c2c(O)cc(O)c3c(=O)cc(-c4ccccc4Cl)oc23)[C@H](O)C1 [alvocidib]
Summary of the method: (§1)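 To prepare the extract, K562 pellets were dounce-homogenised in PBS pH 7.4 with 1 mM MgCl2, giving crude material at 1 mg/mL protein. This was treated with 10 μM compound for 30 min, then heated in aliquots for 3 min over 48°C-58°C before pooling and addition of NP-40 to 0.5% at 4°C. Centrifugation at 21,000xg for 90 min left soluble protein in the supernatant, which TMTpro 16plex LC-MS/MS quantified with equalised channel sums. Results are log-two fold changes in thermal stability compared with solvent controls, from duplicates.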

Tubastatin A = compound: CN1CCc2c(c3ccccc3n2Cc2ccc(C(=O)NO)cc2)C1 [Tubastatin A]
Summary of the method: as §1

[1] = compound: CNC(=O)C1=CC=CC=C1NC2=NC(=NC=C2Cl)NC3=C(C=C(C=C3)N4CCOCC4)OC
Summary of the method: as §1

defactinib = compound: CNC(=O)c1ccc(Nc2ncc(C(F)(F)F)c(NCc3nccnc3N(C)S(C)(=O)=O)n2)cc1 [defactinib]
Summary of the method: as §1

[2] = compound: CNc1nc(-c2ccc3c(N)n[nH]c3c2)cc(N2C[C@@H](C(=O)NC3CCCCC3)CC[C@H]2C)n1
Summary of the method: as §1

encorafenib = compound: COC(=O)N[C@@H](C)CNc1nccc(-c2cn(C(C)C)nc2-c2cc(Cl)cc(NS(C)(=O)=O)c2F)n1 [encorafenib]
Summary of the method: as §1

[3] = compound: COC(=O)[C@H](CCSC)NC(=O)C1=C(C=C(C=C1)NC[C@H](CS)N)C2=CC=CC=C2
Summary of the method: as §1

alisertib = compound: COc1cc(Nc2ncc3c(n2)-c2ccc(Cl)cc2C(c2c(F)cccc2OC)=NC3)ccc1C(=O)O [alisertib]
Summary of the method: as §1

[4] = compound: COc1cc2nc(-c3cc(F)ccc3O)nc(N[C@@H]3CNC[C@H]3C(C)(C)O)c2cc1OC
Summary of the method: as §1

gefitinib = compound: COc1cc2ncnc(Nc3ccc(F)c(Cl)c3)c2cc1OCCCN1CCOCC1 [gefitinib]
Summary of the method: as §1

Measured: log2 fold change

SLC35B1 isoform 2 (UniProt P78383)
inactive: alvocidib -0.375 | Tubastatin A -0.19 | [1] 0.061 | defactinib 0.056 | [2] -0.002 | encorafenib 0 | [3] 0.047 | alisertib 0.182 | [4] 0.006 | gefitinib -0.022

SLC31A1 (UniProt O15431)
inactive: alvocidib -0.002 | Tubastatin A -0.112 | [1] 0.07 | defactinib -0.094 | [2] -0.16 | alisertib -0.17 | [4] 0.104 | gefitinib 0.049

SLC22A5 isoform 3 (UniProt O76082)
inactive: alvocidib 0.171 | Tubastatin A 0.029 | [1] -0.036 | defactinib -0.351 | [2] -0.006 | [4] 0.113

SLC38A10 (UniProt Q9HBR0)
inactive: alvocidib -0.036 | Tubastatin A 0.074 | [1] -0.015 | defactinib 0.023 | [2] 0.04 | encorafenib 0.037 | [3] -0.06 | alisertib -0.032 | [4] 0.032 | gefitinib -0.046

SLC25A6 (UniProt P12236)
inactive: alvocidib -0.011 | Tubastatin A 0.051 | [1] 0.022 | defactinib -0.014 | [2] 0.031 | encorafenib -0.009 | [3] 0.067 | alisertib 0.064 | [4] 0.012 | gefitinib 0

SLC25A30 (UniProt Q5SVS4)
inactive: alvocidib -0.069 | Tubastatin A -0.037 | [1] 0.026 | defactinib -0.015 | [2] 0.086 | alisertib -0.065 | [4] -0.005 | gefitinib -0.051

SLC26A6 (UniProt Q9BXS9)
inactive: alvocidib -0.095 | Tubastatin A -0.05 | [1] -0.004 | defactinib 0.055 | [2] 0.086 | encorafenib -0.016 | [3] -0.111 | alisertib 0.06 | [4] -0.056 | gefitinib -0.022

SLC25A44 (UniProt Q96H78)
inactive: alvocidib -0.05 | Tubastatin A 0.007 | [1] -0.221 | defactinib 0.064 | [2] 0.14 | encorafenib 0.015 | [3] -0.013 | [4] 0.099

SLC52A2 (UniProt Q9HAB3)
inactive: alvocidib -0.027 | Tubastatin A 0.123 | [1] -0.01 | defactinib -0.085 | [2] -0.019 | encorafenib 0.085 | [3] 0.038 | [4] 0.172

SLC25A21 (UniProt Q9BQT8)
inactive: alvocidib -0.068 | Tubastatin A 0.037 | [1] 0.025 | defactinib 0.019 | [2] 0.023 | encorafenib 0.048 | [3] -0.021 | alisertib 0.041 | [4] 0.002 | gefitinib 0.039

SLC9A6 isoform 2 (UniProt Q92581)
inactive: alvocidib 0.028 | Tubastatin A 0.069 | [1] 0.042 | defactinib 0 | [2] -0.028 | encorafenib 0.016 | [3] -0.057 | [4] 0.024

SLC22A23 (UniProt A1A5C7)
inactive: alvocidib -0.15 | Tubastatin A 0.035 | [1] -0.028 | defactinib -0.062 | [2] 0.041 | encorafenib -0.08 | [3] 0.011 | [4] 0.081

SLC36A4 (UniProt Q6YBV0)
inactive: alvocidib -0.108 | Tubastatin A -0.059 | [1] -0.062 | [2] 0.187 | encorafenib 0.012 | [3] 0.084 | alisertib -0.22 | [4] 0.022 | gefitinib 0.097

Taken from the listing (five entries):
SLC25A30 (UniProt Q5SVS4)
inactive: alvocidib -0.069 | Tubastatin A -0.037 | [1] 0.026 | defactinib -0.015 | [2] 0.086 | alisertib -0.065 | [4] -0.005 | gefitinib -0.051

SLC26A6 (UniProt Q9BXS9)
inactive: alvocidib -0.095 | Tubastatin A -0.05 | [1] -0.004 | defactinib 0.055 | [2] 0.086 | encorafenib -0.016 | [3] -0.111 | alisertib 0.06 | [4] -0.056 | gefitinib -0.022

SLC25A44 (UniProt Q96H78)
inactive: alvocidib -0.05 | Tubastatin A 0.007 | [1] -0.221 | defactinib 0.064 | [2] 0.14 | encorafenib 0.015 | [3] -0.013 | [4] 0.099

SLC52A2 (UniProt Q9HAB3)
inactive: alvocidib -0.027 | Tubastatin A 0.123 | [1] -0.01 | defactinib -0.085 | [2] -0.019 | encorafenib 0.085 | [3] 0.038 | [4] 0.172

SLC25A21 (UniProt Q9BQT8)
inactive: alvocidib -0.068 | Tubastatin A 0.037 | [1] 0.025 | defactinib 0.019 | [2] 0.023 | encorafenib 0.048 | [3] -0.021 | alisertib 0.041 | [4] 0.002 | gefitinib 0.039

Remaining list, next part.

SLC39A11 (UniProt Q8N1S5)
inactive: alvocidib -0.02 | Tubastatin A -0.065 | [1] 0.107 | defactinib 0.338 | [2] -0.111 | encorafenib -0.059 | [3] -0.23 | alisertib -0.047 | [4] 0.097 | gefitinib 0.059

SLC3A2 (UniProt F5GZS6)
inactive: alvocidib 0.025 | Tubastatin A 0.044 | [1] 0.141 | [2] 0.117 | encorafenib 0.026 | [3] -0.059 | alisertib 0.105 | [4] 0.13 | gefitinib 0.167

SLC26A2 (UniProt P50443)
inactive: alvocidib -0.152 | Tubastatin A 0.12 | [1] 0 | defactinib 0.009 | [2] -0.059 | encorafenib -0.013 | [3] -0.055 | [4] 0.056

SLC29A2 (UniProt Q14542)
inactive: alvocidib -0.134 | Tubastatin A -0.018 | [1] 0.187 | defactinib -0.011 | [2] -0.042 | encorafenib 0.025 | [3] 0.007 | alisertib -0.031 | [4] 0.008 | gefitinib 0.046

SLC25A20 (UniProt O43772)
inactive: alvocidib -0.011 | Tubastatin A 0.014 | [1] 0.031 | defactinib 0.016 | [2] -0.012 | encorafenib 0.03 | [3] 0.005 | alisertib -0.014 | [4] -0.019 | gefitinib 0.016
